Test results from the supplement of paper PMC10849652.
This is one part of the list.

Amino acid sequences for entries named in this document (tags omitted). A change or cut given only in a name is not applied to a line headed by its entry.
UniProt P47900: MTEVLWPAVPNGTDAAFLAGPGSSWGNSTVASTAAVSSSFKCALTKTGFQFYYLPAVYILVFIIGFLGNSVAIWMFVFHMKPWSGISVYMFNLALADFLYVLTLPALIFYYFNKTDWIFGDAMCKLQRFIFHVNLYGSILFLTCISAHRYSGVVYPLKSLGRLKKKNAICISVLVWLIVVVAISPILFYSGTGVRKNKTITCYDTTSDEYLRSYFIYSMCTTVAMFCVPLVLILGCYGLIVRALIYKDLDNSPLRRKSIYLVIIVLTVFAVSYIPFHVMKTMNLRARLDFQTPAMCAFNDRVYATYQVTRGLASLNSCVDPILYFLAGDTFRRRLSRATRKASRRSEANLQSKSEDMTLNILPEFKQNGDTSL
UniProt P11926: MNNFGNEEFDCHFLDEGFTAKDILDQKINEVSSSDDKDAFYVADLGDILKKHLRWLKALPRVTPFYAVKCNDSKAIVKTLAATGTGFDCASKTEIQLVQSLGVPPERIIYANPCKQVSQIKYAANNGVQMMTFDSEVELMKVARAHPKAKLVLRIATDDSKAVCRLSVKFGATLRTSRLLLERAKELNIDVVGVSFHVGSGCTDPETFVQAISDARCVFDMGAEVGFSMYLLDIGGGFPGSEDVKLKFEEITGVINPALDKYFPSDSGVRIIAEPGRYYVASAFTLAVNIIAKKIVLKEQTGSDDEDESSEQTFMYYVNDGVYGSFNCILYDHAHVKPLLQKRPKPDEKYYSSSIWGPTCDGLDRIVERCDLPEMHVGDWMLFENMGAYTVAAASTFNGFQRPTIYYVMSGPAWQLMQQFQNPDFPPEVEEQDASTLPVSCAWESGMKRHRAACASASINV
UniProt Q86UD1: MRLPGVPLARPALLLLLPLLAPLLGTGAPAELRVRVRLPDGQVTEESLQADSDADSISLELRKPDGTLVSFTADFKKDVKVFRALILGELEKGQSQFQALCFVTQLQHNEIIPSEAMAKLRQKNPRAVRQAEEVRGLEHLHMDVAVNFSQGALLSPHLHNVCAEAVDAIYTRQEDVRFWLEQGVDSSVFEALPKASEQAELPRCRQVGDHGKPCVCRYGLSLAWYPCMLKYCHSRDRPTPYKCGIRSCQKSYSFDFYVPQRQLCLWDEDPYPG
UniProt P0C025: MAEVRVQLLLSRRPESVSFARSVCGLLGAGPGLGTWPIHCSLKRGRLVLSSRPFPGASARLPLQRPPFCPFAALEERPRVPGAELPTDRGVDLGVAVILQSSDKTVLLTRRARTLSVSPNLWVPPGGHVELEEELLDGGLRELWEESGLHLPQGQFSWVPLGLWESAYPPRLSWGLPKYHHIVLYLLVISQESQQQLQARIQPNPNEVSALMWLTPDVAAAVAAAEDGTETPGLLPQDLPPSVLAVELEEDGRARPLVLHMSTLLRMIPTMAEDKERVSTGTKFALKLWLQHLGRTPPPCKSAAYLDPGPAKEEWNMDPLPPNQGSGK
UniProt Q8IVL6: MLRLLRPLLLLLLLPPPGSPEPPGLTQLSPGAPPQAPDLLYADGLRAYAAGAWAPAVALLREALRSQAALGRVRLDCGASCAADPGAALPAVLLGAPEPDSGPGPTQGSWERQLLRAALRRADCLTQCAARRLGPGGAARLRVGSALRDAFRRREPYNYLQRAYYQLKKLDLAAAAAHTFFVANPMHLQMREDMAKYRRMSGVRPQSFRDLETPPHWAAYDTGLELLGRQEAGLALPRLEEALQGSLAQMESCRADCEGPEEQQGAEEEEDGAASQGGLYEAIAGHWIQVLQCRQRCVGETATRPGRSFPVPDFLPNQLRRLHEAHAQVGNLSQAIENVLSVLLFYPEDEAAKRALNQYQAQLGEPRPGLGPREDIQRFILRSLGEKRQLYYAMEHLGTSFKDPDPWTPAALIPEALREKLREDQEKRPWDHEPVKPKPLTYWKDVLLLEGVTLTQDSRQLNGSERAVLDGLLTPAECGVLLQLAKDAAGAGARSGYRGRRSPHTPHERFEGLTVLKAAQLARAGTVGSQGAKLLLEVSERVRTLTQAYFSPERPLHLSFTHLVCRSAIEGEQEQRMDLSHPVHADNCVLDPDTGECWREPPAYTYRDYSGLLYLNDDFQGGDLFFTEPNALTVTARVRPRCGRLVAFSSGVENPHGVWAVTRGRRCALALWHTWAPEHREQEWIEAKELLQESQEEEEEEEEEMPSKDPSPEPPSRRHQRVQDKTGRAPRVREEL
UniProt Q8N138: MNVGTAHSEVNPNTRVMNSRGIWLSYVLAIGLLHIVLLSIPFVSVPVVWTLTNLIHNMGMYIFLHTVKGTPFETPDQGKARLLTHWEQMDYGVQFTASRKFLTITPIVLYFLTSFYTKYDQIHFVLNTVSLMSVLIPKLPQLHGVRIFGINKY
UniProt O95848: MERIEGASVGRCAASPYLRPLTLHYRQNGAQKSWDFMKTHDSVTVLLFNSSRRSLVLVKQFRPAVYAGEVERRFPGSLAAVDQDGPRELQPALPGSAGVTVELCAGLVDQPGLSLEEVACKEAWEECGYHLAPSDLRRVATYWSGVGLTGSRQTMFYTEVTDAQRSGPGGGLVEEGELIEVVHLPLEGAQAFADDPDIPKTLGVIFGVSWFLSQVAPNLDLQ
UniProt P53370: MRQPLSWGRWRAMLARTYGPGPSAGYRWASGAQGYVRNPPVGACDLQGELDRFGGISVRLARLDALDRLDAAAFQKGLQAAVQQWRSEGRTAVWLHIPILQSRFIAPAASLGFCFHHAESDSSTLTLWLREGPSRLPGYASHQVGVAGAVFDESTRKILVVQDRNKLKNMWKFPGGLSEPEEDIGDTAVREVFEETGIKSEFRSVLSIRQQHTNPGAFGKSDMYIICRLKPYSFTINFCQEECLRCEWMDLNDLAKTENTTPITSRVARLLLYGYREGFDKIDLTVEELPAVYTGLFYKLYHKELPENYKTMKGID
UniProt Q8NE18: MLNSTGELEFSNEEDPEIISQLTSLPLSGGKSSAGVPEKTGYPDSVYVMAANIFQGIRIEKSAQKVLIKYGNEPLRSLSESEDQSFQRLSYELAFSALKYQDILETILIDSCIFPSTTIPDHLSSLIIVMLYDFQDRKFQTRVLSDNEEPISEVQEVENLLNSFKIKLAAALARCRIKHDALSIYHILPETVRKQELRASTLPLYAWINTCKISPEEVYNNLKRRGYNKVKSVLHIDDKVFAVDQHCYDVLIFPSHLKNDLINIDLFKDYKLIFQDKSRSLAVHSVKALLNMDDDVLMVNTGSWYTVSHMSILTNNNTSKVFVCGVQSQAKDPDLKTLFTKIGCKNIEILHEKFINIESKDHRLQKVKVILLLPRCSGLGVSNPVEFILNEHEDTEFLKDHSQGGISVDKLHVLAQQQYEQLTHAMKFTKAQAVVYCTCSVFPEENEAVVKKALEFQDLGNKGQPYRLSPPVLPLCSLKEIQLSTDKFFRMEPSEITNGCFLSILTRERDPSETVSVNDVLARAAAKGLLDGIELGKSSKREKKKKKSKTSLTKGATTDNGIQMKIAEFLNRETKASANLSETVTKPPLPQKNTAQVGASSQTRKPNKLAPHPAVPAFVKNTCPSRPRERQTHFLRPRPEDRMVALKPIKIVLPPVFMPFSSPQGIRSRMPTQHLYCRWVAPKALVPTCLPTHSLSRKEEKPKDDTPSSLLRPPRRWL
UniProt Q99935: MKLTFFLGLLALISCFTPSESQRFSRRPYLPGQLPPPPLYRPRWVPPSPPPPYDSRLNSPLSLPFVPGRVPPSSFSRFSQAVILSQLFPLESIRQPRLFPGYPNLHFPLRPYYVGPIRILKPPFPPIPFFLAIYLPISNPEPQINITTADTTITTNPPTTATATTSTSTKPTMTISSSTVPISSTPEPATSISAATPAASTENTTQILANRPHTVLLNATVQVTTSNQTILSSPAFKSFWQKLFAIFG
UniProt Q5BKU9: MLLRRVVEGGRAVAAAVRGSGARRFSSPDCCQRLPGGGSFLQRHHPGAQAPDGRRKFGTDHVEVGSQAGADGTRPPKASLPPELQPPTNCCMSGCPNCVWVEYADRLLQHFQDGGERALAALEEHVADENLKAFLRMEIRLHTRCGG
UniProt Q6ZVK8: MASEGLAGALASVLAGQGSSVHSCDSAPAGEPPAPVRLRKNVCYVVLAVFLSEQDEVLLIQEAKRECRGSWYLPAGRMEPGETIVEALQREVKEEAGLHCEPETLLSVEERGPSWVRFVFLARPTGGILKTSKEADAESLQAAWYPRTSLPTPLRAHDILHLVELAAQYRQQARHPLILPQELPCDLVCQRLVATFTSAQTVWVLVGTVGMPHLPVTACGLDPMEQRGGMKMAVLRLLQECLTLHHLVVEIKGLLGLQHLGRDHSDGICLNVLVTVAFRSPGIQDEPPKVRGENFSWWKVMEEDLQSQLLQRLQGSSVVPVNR
UniProt P0C024: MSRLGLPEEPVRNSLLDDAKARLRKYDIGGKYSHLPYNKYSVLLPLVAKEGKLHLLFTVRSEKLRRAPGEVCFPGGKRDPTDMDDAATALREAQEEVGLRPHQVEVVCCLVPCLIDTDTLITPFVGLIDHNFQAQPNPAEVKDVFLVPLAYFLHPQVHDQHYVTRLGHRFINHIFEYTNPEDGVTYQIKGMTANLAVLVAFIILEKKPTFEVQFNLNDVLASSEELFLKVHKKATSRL
UniProt O15381: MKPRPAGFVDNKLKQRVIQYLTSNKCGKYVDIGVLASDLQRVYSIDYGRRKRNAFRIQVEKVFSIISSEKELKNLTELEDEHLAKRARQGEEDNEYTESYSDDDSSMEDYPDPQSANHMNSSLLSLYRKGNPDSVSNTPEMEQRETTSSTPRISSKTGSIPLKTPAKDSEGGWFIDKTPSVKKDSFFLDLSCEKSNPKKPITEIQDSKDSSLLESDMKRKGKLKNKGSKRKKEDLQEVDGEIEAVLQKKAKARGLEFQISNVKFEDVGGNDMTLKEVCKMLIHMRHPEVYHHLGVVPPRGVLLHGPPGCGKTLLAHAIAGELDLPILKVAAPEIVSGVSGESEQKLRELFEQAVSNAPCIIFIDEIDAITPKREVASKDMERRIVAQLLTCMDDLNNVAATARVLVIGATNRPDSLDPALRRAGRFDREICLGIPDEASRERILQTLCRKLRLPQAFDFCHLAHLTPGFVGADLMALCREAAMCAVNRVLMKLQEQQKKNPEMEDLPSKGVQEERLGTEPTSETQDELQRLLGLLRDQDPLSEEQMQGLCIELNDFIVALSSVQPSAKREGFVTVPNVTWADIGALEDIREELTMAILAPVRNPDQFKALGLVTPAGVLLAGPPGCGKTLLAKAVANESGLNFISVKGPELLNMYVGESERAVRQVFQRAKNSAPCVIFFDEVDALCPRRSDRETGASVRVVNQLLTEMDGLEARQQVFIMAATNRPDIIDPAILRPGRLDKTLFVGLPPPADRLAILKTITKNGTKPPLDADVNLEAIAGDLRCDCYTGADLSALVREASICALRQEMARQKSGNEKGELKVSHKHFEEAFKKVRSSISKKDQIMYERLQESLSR
UniProt Q6PK18: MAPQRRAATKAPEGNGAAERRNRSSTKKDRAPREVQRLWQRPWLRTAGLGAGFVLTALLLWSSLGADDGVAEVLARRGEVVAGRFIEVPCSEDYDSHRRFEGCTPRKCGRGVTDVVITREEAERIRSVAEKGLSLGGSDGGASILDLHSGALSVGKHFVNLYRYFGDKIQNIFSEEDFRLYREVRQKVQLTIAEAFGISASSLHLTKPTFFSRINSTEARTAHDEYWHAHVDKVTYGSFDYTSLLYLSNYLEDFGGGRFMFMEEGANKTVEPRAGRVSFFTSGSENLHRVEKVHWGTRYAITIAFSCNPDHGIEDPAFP
UniProt Q8N573: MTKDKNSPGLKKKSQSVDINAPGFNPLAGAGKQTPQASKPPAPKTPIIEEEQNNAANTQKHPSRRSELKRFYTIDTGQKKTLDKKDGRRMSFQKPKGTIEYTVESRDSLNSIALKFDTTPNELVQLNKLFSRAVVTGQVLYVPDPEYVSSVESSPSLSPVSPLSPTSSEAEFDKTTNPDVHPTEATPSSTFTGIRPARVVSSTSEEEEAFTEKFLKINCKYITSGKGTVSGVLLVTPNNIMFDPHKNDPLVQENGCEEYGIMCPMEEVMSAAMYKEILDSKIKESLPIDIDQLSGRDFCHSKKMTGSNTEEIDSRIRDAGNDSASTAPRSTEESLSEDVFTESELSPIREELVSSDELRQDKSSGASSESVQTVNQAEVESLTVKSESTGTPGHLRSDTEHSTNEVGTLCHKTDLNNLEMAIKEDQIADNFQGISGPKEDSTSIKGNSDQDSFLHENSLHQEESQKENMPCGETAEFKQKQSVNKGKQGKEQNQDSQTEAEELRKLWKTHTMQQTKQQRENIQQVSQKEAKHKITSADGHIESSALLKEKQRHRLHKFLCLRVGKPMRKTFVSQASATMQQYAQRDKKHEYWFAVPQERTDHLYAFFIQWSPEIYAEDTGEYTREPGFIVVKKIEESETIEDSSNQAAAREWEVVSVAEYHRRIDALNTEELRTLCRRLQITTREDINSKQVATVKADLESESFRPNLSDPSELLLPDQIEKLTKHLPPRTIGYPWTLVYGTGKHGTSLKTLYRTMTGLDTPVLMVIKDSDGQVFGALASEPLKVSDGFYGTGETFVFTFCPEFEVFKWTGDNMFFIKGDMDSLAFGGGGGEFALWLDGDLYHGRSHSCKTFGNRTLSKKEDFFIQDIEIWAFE

Legend:
Test in all cases: log2 fold change, soluble protein after heating vs DMSO (PISA); higher = thermal stabilisation; K562 cells, 10 uM, 30 min; active = over 0.2 and 3.5 SD of the protein, either way, in both replicates (recomputed)
saracatinib = compound: CN1CCN(CCOc2cc(OC3CCOCC3)c3c(Nc4c(Cl)ccc5c4OCO5)ncnc3c2)CC1 [saracatinib]
Method in brief: (§1)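 Quantification of soluble protein used TMTpro 16plex LC-MS/MS, with channel sums equalised. Samples were the supernatant after 21,000xg for 90 min of pooled aliquots from K562 cells (2×10^6 cells/mL) treated with 10 μM compound for 30 min, heated for 3 min over 48°C-58°C, and extracted in PBS with 0.5% NP-40 at 4°C. Values, from duplicates, describe thermal stability against control samples on a log2 fold-change scale.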

[1] = compound: CNC(=O)C1=CC=CC=C1NC2=NC(=NC=C2Cl)NC3=C(C=C(C=C3)N4CCOCC4)OC
Method in brief: as §1

[2] = compound: CNc1nc(-c2ccc3c(N)n[nH]c3c2)cc(N2C[C@@H](C(=O)NC3CCCCC3)CC[C@H]2C)n1
Method in brief: as §1

idasanutlin = compound: COc1cc(C(=O)O)ccc1NC(=O)[C@@H]1N[C@@H](CC(C)(C)C)[C@](C#N)(c2ccc(Cl)cc2F)[C@H]1c1cccc(Cl)c1F [idasanutlin]
Method in brief: as §1

alisertib = compound: COc1cc(Nc2ncc3c(n2)-c2ccc(Cl)cc2C(c2c(F)cccc2OC)=NC3)ccc1C(=O)O [alisertib]
Method in brief: as §1

[3] = compound: COc1cc2nc(-c3cc(F)ccc3O)nc(N[C@@H]3CNC[C@H]3C(C)(C)O)c2cc1OC
Method in brief: as §1

[4] = compound: COc1cccc2cc(-c3nc([C@H]4CC[C@H](C(=O)O)CC4)n4ncnc(N)c34)[nH]c12
Method in brief: as §1

lapatinib = compound: CS(=O)(=O)CCNCc1ccc(-c2ccc3ncnc(Nc4ccc(OCc5cccc(F)c5)c(Cl)c4)c3c2)o1 [lapatinib]
Method in brief: as §1

pictilisib = compound: CS(=O)(=O)N1CCN(Cc2cc3nc(-c4cccc5[nH]ncc45)nc(N4CCOCC4)c3s2)CC1 [pictilisib]
Method in brief: as §1

[5] = compound: COC1=CC=C(C=C1)CN2C=CC3=C2C=C(C=C3)C(=O)NO
Method in brief: as §1

gefitinib = compound: COc1cc2ncnc(Nc3ccc(F)c(Cl)c3)c2cc1OCCCN1CCOCC1 [gefitinib]
Method in brief: as §1

sotrastaurin = compound: CN1CCN(c2nc(C3=C(c4c[nH]c5ccccc45)C(=O)NC3=O)c3ccccc3n2)CC1 [sotrastaurin]
Method in brief: as §1

filanesib = compound: CON(C)C(=O)N1N=C(c2cc(F)ccc2F)S[C@@]1(CCCN)c1ccccc1 [filanesib]
Method in brief: as §1

alvocidib = compound: CN1CC[C@H](c2c(O)cc(O)c3c(=O)cc(-c4ccccc4Cl)oc23)[C@H](O)C1 [alvocidib]
Method in brief: as §1

Tubastatin A = compound: CN1CCc2c(c3ccccc3n2Cc2ccc(C(=O)NO)cc2)C1 [Tubastatin A]
Method in brief: as §1

defactinib = compound: CNC(=O)c1ccc(Nc2ncc(C(F)(F)F)c(NCc3nccnc3N(C)S(C)(=O)=O)n2)cc1 [defactinib]
Method in brief: as §1

[6] = compound: COC(=O)[C@H](CCSC)NC(=O)C1=C(C=C(C=C1)NC[C@H](CS)N)C2=CC=CC=C2
Method in brief: as §1

zotarolimus = compound: CO[C@H]1C[C@@H]2CC[C@@H](C)[C@@](O)(O2)C(=O)C(=O)N2CCCC[C@H]2C(=O)O[C@H]([C@H](C)C[C@@H]2CC[C@H](n3cnnn3)[C@H](OC)C2)CC(=O)[C@H](C)/C=C(\C)[C@@H](O)[C@@H](OC)C(=O)[C@H](C)C[C@H](C)/C=C/C=C/C=C/1C [zotarolimus]
Method in brief: as §1

rucaparib = compound: CNCc1ccc(-c2[nH]c3cc(F)cc4c3c2CCNC4=O)cc1 [rucaparib]
Method in brief: as §1

encorafenib = compound: COC(=O)N[C@@H](C)CNc1nccc(-c2cn(C(C)C)nc2-c2cc(Cl)cc(NS(C)(=O)=O)c2F)n1 [encorafenib]
Method in brief: as §1

Measured: log2 fold change

P2RY1 (UniProt P47900)
inactive: saracatinib 0.213 | [1] -0.011 | [2] 0.065 | idasanutlin -0.054 | alisertib -0.15 | [3] 0.026 | [4] 0.02 | lapatinib -0.019 | pictilisib -0.1

ODC1 (UniProt P11926)
inactive: saracatinib 0.031 | [1] 0.008 | [2] 0.033 | [5] -0.3 | idasanutlin 0.227 | [3] 0.117 | gefitinib -0.108 | lapatinib -0.096

OAF (UniProt Q86UD1)
inactive: sotrastaurin 0.139 | [1] 0.043 | filanesib -0.017 | alisertib -0.239
active: [4] 0.539

NUDT17 (UniProt P0C025)
inactive: sotrastaurin -0.512 | alvocidib -0.014 | Tubastatin A 0.109 | [1] 0.97 | defactinib -0.139 | [6] 0.008 | filanesib -0.175 | zotarolimus 0.153 | idasanutlin -0.113 | alisertib 0.028 | gefitinib 0.025 | [4] -0.037

P4HB (UniProt H7BZ94)
inactive: sotrastaurin 0.262 | filanesib 0.168

OSBPL11 (UniProt Q9BXB4)
inactive: [1] 0.008

P3H3 (UniProt Q8IVL6)
inactive: Tubastatin A -0.136 | alisertib -0.107 | [4] -0.044

ORC2 (UniProt Q13416)
inactive: sotrastaurin -0.131 | Tubastatin A -0.056 | [1] -0.077 | rucaparib 0.083 | encorafenib 0.038 | [5] -0.289 | filanesib -0.105 | alisertib 0.062 | [3] -0.039 | gefitinib 0.112 | [4] 0.02 | lapatinib 0.023 | pictilisib -0.058

PABPC1 (UniProt E5RJM8)
inactive: sotrastaurin 0.076 | [5] -0.428 | filanesib -0.058 | [3] 0.068 | lapatinib -0.186

PABPC1 (UniProt H0YAR2)
inactive: sotrastaurin -0.104 | [5] 0.296 | filanesib -0.042 | alisertib 0.105 | [4] -0.051

ORMDL3 (UniProt Q8N138)
inactive: [1] -0.14 | [3] -0.15 | lapatinib -0.041

OSBPL6 isoform 5 (UniProt Q9BZF3)
inactive: sotrastaurin -0.097 | [1] 0.063 | rucaparib 0.557 | encorafenib 0.271 | [5] -0.25 | filanesib 0.781 | idasanutlin -0.227 | alisertib -0.08 | [3] 0.148 | gefitinib 0.524 | [4] -0.213 | lapatinib 0.158

OBSCN (UniProt A6NGQ3)
inactive: sotrastaurin 0.128 | alvocidib 0.073 | Tubastatin A 0 | rucaparib 0.061 | encorafenib 0.052 | [5] -0.267 | filanesib 0.076 | zotarolimus -0.204 | idasanutlin 0.024 | [3] 0.047 | gefitinib 0.059 | lapatinib -0.09

NUDT14 (UniProt O95848)
inactive: [3] -0.004 | lapatinib -0.104

NUDT6 (UniProt P53370)
inactive: saracatinib 0.063 | Tubastatin A 0.098 | [1] 0.014 | defactinib 0.066 | rucaparib -0.38 | [2] -0.023 | encorafenib -0.024 | [6] -0.087 | [5] 0.017 | zotarolimus -0.173 | alisertib 0.012 | [3] 0.175 | gefitinib -0.025 | [4] -0.084 | lapatinib -0.017

NSUN7 (UniProt Q8NE18)
inactive: alvocidib -0.008 | Tubastatin A 0.059 | [1] 0.056 | defactinib 0.068 | rucaparib -0.108 | encorafenib 0.178 | [6] -0.013 | [5] -0.189 | zotarolimus -0.228 | idasanutlin -0.027 | alisertib 0.123 | [3] 0.207 | gefitinib 0.077 | [4] -0.2 | lapatinib -0.416 | pictilisib 0.163

ORC3 (UniProt Q9UBD5)
inactive: rucaparib 0.061 | encorafenib 0.032 | idasanutlin -0.167

OPRPN (UniProt Q99935)
inactive: alisertib -0.21 | [4] 0.119

ODF2L isoform 4 (UniProt Q9ULJ1)
inactive: defactinib -0.015 | rucaparib -0.036 | encorafenib -0.119 | [6] -0.023 | [5] -0.119 | alisertib -0.055 | gefitinib -0.023 | [4] -0.073

OXLD1 (UniProt Q5BKU9)
inactive: rucaparib 0 | encorafenib -0.125 | alisertib -0.077 | gefitinib 0.013 | [4] 0.033

ORC6 (UniProt Q9Y5N6)
inactive: sotrastaurin 0.011 | rucaparib 0.017 | encorafenib -0.104 | [5] -0.12 | filanesib -0.007 | [3] -0.008 | gefitinib -0.038 | lapatinib -0.104

ORAI1 (UniProt Q96D31)
inactive: Tubastatin A -0.115 | [1] -0.038 | defactinib -0.056 | rucaparib 0.031 | encorafenib 0.021 | [6] -0.105 | [5] 0.017 | alisertib 0.073 | [3] -0.033 | gefitinib -0.084 | [4] 0.001 | lapatinib 0.002

NUDT18 (UniProt Q6ZVK8)
inactive: sotrastaurin 0.036 | alvocidib 0.039 | Tubastatin A -0.073 | [1] 0.08 | defactinib 0.102 | rucaparib 0.14 | encorafenib 0.025 | [6] 0.103 | [5] -0.095 | filanesib 0.013 | zotarolimus -0.283 | idasanutlin -0.049 | alisertib -0.168 | [3] 0.008 | gefitinib -0.047 | [4] 0.01 | lapatinib -0.059 | pictilisib -0.076

ODF2 (UniProt Q5BJF6)
inactive: pictilisib -0.333

NUDT22 (UniProt Q9BRQ3)
inactive: saracatinib -0.196 | defactinib 0.052 | [2] -0.07 | [6] -0.189 | idasanutlin 0.19 | alisertib -0.241 | [4] 0.105

OSBPL2 (UniProt Q9H1P3)
active: lapatinib 1.57
inactive: zotarolimus 0.085 | alisertib -0.019 | [3] -0.187 | [4] -0.042

Random excerpt: 2 entries already listed
ODC1 (UniProt P11926)
inactive: saracatinib 0.031 | [1] 0.008 | [2] 0.033 | [5] -0.3 | idasanutlin 0.227 | [3] 0.117 | gefitinib -0.108 | lapatinib -0.096

NUDT17 (UniProt P0C025)
inactive: sotrastaurin -0.512 | alvocidib -0.014 | Tubastatin A 0.109 | [1] 0.97 | defactinib -0.139 | [6] 0.008 | filanesib -0.175 | zotarolimus 0.153 | idasanutlin -0.113 | alisertib 0.028 | gefitinib 0.025 | [4] -0.037

Continued.

NUDT7 (UniProt P0C024)
inactive: sotrastaurin 0.035 | Tubastatin A -0.045 | [1] 0.052 | [5] 0.023 | filanesib -0.092 | gefitinib 0.05 | pictilisib 0.115

NXF1 (UniProt Q9UBU9)
inactive: Tubastatin A 0.085 | [5] 0.013 | idasanutlin 0.286 | [3] -0.039 | gefitinib -0.024 | lapatinib -0.176 | pictilisib 0.043

NVL (UniProt O15381)
inactive: alisertib -0.059 | [4] -0.007 | pictilisib 0.053

OGFOD3 (UniProt Q6PK18)
inactive: alisertib -0.064 | [3] 0.404 | gefitinib -0.078 | [4] -0.246 | lapatinib -0.163

ORMDL1 (UniProt Q9P0S3)
inactive: sotrastaurin -0.024 | Tubastatin A -0.074 | [1] 0.145 | rucaparib -0.102 | encorafenib -0.072 | [5] 0.097 | filanesib -0.025 | alisertib -0.009 | [4] 0.125

OXR1 isoform 2 (UniProt Q8N573)
inactive: saracatinib -0.138 | Tubastatin A -0.038 | defactinib -0.067 | rucaparib -0.008 | [2] 0.092 | encorafenib -0.022 | [6] 0.047 | [5] -0.175 | zotarolimus -0.014 | idasanutlin -0.009 | [3] 0.018 | gefitinib 0.014 | lapatinib -0.061 | pictilisib -0.073
